From the RNAGym collection of RNA variant scans (doi:10.1126/science.aae0568)
This sample is rich in variants without activity.

B1: tRNA (parent)
chain: GUUCCGUUGGCGUAAUGGUAACGCGUCUCCCUCCUAAGGAGAAGACUGCGGGUUCGAGUCCCGUACGGAACG

Variants of: B1
Assay: yeast fitness relative to wild type (ratio to wild type); higher = fitter; tRNA-Arg(CCU), competitive growth, 37 C, YPD
Summary of the method: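 Genotype frequency changes were the basis for Darwinian fitness relative to wild type. The frequencies came from 100-nucleotide paired-end sequencing of gene amplicons from the start population and each end population of pooled yeast strains with tRNA-Arg(CCU) gene variants at the native locus. Competition ran in YPD at 37°C for 24 hours in six replicates, genotypes needed ≥ 100 starting reads, and estimates < 0.5 were set to 0.5.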

Row | Variant | yeast fitness
1 | C27U C30G A40C G52A | ≤ 0.5
2 | U35A G41A C66G | ≤ 0.5
3 | U2C C4A U32C A43C | ≤ 0.5
4 | U2G C22U C24G C49U A69C | ≤ 0.5
5 | G25A C31A G44C | 0.597
6 | A20C A40U C61G | ≤ 0.5
7 | C5G C11U A37C U54A | ≤ 0.5
8 | C30G C55A | ≤ 0.5
9 | A20U C31A A57G U64G C66A | ≤ 0.5
10 | U19C U28C C29G A57U | ≤ 0.5
11 | C4G G56A C62G | ≤ 0.5
12 | U13C C22U C34G A36U A65C | ≤ 0.5
13 | G25A C29U A42C G48C | ≤ 0.5
14 | G10C G41A C62U | ≤ 0.5
15 | A37U A42C A69C | ≤ 0.5
16 | C27U G38A A40G A43U C46G C49G C62U | ≤ 0.5
17 | G12A U13G | 0.869
18 | C31G U35A C62G G67U | ≤ 0.5
19 | U13A U32A C33G A42C A57U | ≤ 0.5
20 | A37G G41C C55G | ≤ 0.5
21 | G25C C33G G44C | ≤ 0.5
22 | C5A C11U A14U A43G | ≤ 0.5
23 | C11A A15U C24G A42C A43C A65U | ≤ 0.5
24 | C27A A36G C60G A70C | ≤ 0.5

Row | Variant | yeast fitness
25 | A14U G23U G68C | 0.514
26 | U2C C27G U28A A43U A69U | 0.541
27 | U26C A42G G67U | 0.647
28 | A21G C22U A37U A45G C46G C55A U64G | ≤ 0.5
29 | G23A C33G C49A | ≤ 0.5
30 | U2A U13G A40C G41C G68C | ≤ 0.5
31 | U26C U35G | 0.615
32 | G23C A37G A42U G48C C49U | ≤ 0.5
33 | U3G A37C A40G U47C G63A | ≤ 0.5
34 | C11G C49U C62U | 0.535
35 | C11U C29U C55A U64C | ≤ 0.5
36 | U2C C29A G63A | ≤ 0.5
37 | C5U U7A G10A | ≤ 0.5
38 | G6A G12A A36U U54C | ≤ 0.5
39 | U3A U7C U19A C27A | ≤ 0.5
40 | G25C C27A C66U | ≤ 0.5
41 | C5G G17A U26C C60A | ≤ 0.5
42 | C5U U13A A15G A20G C22G C46G G51A | ≤ 0.5
43 | G18C U19G C27U A43U A65U | ≤ 0.5
44 | U2C C4A U28C G44C G67A | ≤ 0.5
45 | C5U A20C G63A | 0.607
46 | G6C C24U U28C G52C C60G | ≤ 0.5
47 | G23A C33G C46G | ≤ 0.5
48 | C30G C33A G38U | ≤ 0.5

Row | Variant | yeast fitness
49 | G9A U53A A70G | ≤ 0.5
50 | A14G C31A A43G | 0.679
51 | U2A U3A U26A G51A A70U | ≤ 0.5
52 | G18A C22U C30U C33U A45C | ≤ 0.5
53 | C4U G52A U53A C62U | ≤ 0.5
54 | C33G A43G A45U C55U A65C | ≤ 0.5
55 | C31U C33G A65C | ≤ 0.5
56 | C22U C55A | ≤ 0.5
57 | A42G C49G | 0.767
58 | U32G A42G A45C G56A C66U | ≤ 0.5
59 | U3A C4U G67C | 0.624
60 | G10C C11U U13C G18C C27U C33G C55U U64A G68C A70U | ≤ 0.5
61 | U3A C22G C29U G63A | ≤ 0.5
62 | G6A A40G G68A | ≤ 0.5
63 | A40U A42C G52A U64C C66U | ≤ 0.5
64 | U2G U3A | 0.736
65 | U3A G9A U19A G44C | ≤ 0.5
66 | A40G C66U | 0.792
67 | U13C G25A U26G G67U | ≤ 0.5
68 | C29A U32C A42U | ≤ 0.5
69 | C34G C49G U54C C61U A69G | ≤ 0.5
70 | C5U A65C G68A | 0.681
71 | A15U C22G C31U U47C U59C | ≤ 0.5
72 | C11A C31A U32C G44C A65G | ≤ 0.5

Row | Variant | yeast fitness
73 | C11U U19C G23A G25A C55U | 0.537
74 | C29G G44A G56C C62A G67C | ≤ 0.5
75 | A14U G18C | 0.583
76 | U16C U28C C55U A57C G58A | ≤ 0.5
77 | U13C A14U A21C A37G A70U | ≤ 0.5
78 | A21G A36C C46G A65U | ≤ 0.5
79 | C27G C30G C31U A42G U54C | ≤ 0.5
80 | A14U A37G G44C A45C G50A C55G | 0.594
81 | A20U C27A A40U C46A | ≤ 0.5
82 | U3C C11A U32G C61A C62A | 0.587
83 | C11G C27A C34G | ≤ 0.5
84 | U8A C24G C31G C61G | ≤ 0.5
85 | C11G C49U C60U | ≤ 0.5
86 | U8C G9A A37C A43C U59A A69G | ≤ 0.5
87 | G12C U35A A37G | ≤ 0.5
88 | C30A G50A C55G | ≤ 0.5
89 | C4A U13A A69C | ≤ 0.5
90 | C11U G23C C29U C34G A57G U59G | ≤ 0.5
91 | U2G A21U G67C A70U | ≤ 0.5
92 | C5A U16A A45G G50A U59A C66A | ≤ 0.5
93 | U16A C46G A70G | 0.604
94 | A40G G44A C62A | ≤ 0.5
95 | U13C C24U C31A A57C | ≤ 0.5
96 | U2C G17A U19G A69C | ≤ 0.5

Row | Variant | yeast fitness
97 | C24U C29U C30G C60G G67A | ≤ 0.5
98 | C33A A43G A45C C60U C62A | ≤ 0.5
99 | C5U U7A U28A C60U A70G | ≤ 0.5
100 | C11A C22G C29G C55U A69U | ≤ 0.5
101 | G18A A65C | 0.759
102 | A14U A15C C31G A43U | 0.627
103 | G17A C61U C66U | 0.599
104 | C33G U53A C60U | 0.637
105 | U8C A15C A20U A65U | ≤ 0.5
106 | U13C A43U A70G | 0.966
107 | C31G A57G G63A | ≤ 0.5
108 | G18C C61A C62U A65U A69C | ≤ 0.5
109 | C22U U28C C34A A40U C60U | ≤ 0.5
110 | C27G C60U G67C | ≤ 0.5
111 | A20G A21G C24U U59C C62A | ≤ 0.5
112 | C55G U59A G63A C66U | ≤ 0.5
113 | U13A C22G G25C C27U C30G A36G C55A A69U | ≤ 0.5
114 | U16G C49U G63A | 0.994
115 | C11U C24G C33A A40C | 0.955
116 | C29A A69C | 0.679
117 | U19C C60A | 0.547
118 | C4A G18C U35C | ≤ 0.5
119 | U59C C61U | 0.839
120 | A14G C29U A37G A65G | ≤ 0.5

Row | Variant | yeast fitness
121 | A21G C31G C66A | 0.505
122 | A15C C30U C31G A42U A57C G67U | ≤ 0.5
123 | U2A U28A A37C | ≤ 0.5
124 | A21U C22U G56A | ≤ 0.5
125 | C5G A36U G41A A65U | 0.549
126 | C5A U7C C55U A69C | ≤ 0.5
127 | G52U A65G | 0.793
128 | U2G G9C A37C A43G | ≤ 0.5
129 | G10A G12C C46A | ≤ 0.5
130 | A15U U19A C24A A57C A65C A70U | ≤ 0.5
131 | C27U G41A G58C A69C | 0.645
132 | U2A C66A A69C | ≤ 0.5
133 | G17A A20C C24U | 0.562
134 | U28A C33U A57U | ≤ 0.5
135 | C29G A37C G67A | ≤ 0.5
136 | G18A U28A G68A | ≤ 0.5
137 | G6A C11A C61A G67C | ≤ 0.5
138 | G6A C11A C49U A65G | ≤ 0.5
139 | C61A G67A | 0.582
140 | C30U C34U A37U G68A | ≤ 0.5
141 | G6C U19G G48C G52A | ≤ 0.5
142 | U2G C33A C46U C61G | ≤ 0.5
143 | U2C G25A A42U | 0.561
144 | C49U U54G C55G G67A A70G | ≤ 0.5

Row | Variant | yeast fitness
145 | C11U G18C G52C | ≤ 0.5
146 | C5G C34A G68A | ≤ 0.5
147 | C11A A40C | 0.708
148 | C4A G12A A45U | 0.546
149 | C22G U64C | 0.856
150 | C27U C30U A42C A69U A70C | ≤ 0.5
151 | U2G U54G A57C C62U | ≤ 0.5
152 | G12C G17A C29A G44A | ≤ 0.5
153 | G25A C33G G41C C61G A65U | ≤ 0.5
154 | U2G U28C C66U | ≤ 0.5
155 | C5U U28C C46U G58A | ≤ 0.5
156 | C4A G23C C27G U35G C62A | ≤ 0.5
157 | C4U C11U C34G A40C G51C | 0.534
158 | G25A C29G A43C C61A | ≤ 0.5
159 | A21C C49U G67C | ≤ 0.5
160 | C5G A14U G18A A21U A42G G67A | ≤ 0.5
161 | U2G C22U C24G G67A | ≤ 0.5
162 | A14G A21G C24G U28G G63C | ≤ 0.5
163 | C4G C11G U13A U59G C61G | ≤ 0.5
164 | A42U C46G G50A G67C | ≤ 0.5
165 | C4U U7A U47C C66U | ≤ 0.5
166 | U8A C34U C49A G56C C62A A65C | ≤ 0.5
167 | C5A A14C G18A C22A U47C | ≤ 0.5
